In publication PMC10177021 one finds binding data, which are given here for 7 molecules.

Chains of the proteins cited; added tags and fusions are not shown. Lines headed by an entry give the natural chain unless they say otherwise; changes in a name come on top. Residues count along the entry.
UniProt P97772, residues 21-1199: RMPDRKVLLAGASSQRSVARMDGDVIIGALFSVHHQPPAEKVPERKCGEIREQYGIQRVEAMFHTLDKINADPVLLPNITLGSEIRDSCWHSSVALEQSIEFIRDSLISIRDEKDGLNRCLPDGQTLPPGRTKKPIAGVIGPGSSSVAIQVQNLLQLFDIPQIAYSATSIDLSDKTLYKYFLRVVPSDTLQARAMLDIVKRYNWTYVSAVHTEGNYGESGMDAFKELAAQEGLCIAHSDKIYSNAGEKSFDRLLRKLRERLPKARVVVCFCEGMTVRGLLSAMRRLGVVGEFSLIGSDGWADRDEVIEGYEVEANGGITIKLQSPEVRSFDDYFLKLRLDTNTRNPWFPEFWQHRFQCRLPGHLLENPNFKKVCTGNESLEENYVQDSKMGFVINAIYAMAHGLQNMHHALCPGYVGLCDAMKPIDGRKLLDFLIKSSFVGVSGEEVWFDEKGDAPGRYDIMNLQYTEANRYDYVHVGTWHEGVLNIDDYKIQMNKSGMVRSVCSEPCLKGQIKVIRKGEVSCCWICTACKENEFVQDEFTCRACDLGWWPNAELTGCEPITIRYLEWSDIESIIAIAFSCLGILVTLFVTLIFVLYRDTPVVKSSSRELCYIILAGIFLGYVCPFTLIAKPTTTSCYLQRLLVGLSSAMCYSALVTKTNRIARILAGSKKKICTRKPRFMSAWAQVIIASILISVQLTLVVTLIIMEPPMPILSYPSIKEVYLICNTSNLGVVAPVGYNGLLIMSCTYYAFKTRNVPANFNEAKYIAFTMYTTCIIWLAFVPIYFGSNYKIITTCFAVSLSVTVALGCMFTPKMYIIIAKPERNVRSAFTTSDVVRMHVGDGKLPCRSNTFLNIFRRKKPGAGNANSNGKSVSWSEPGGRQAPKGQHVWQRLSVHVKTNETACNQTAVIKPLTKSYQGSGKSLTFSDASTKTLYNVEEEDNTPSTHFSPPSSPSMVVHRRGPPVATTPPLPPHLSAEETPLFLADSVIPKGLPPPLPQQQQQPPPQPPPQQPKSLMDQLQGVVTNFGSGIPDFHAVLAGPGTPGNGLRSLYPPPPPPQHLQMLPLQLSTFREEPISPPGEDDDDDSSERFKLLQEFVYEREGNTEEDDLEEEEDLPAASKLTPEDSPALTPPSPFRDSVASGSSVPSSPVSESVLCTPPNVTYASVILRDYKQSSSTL

B1: inositol polyphosphate-5-phosphatase A (enzyme, UniProt Q7TNC9-2 1-422)
chain: MAGKAAAPGTAVLLVTANVGSLFDDPENLQKNWLREFYQVLHTHKPHFMALHCQEFGGKNYEASMSHVDKFVKELLSSDAMKEYNRARVYLDENYKSQEHFTALGSFYFLHESLKNIYQFDFKAKKYKKVTGKEIYSDTLESTPMLEKEKFPQDYFPECKWSRKGFIRTRWCIADCAFDLVNIHLFHDASNLVAWETSPSVYSGVRHKALGYVLDRIIDQRFEKVSYFVFGDFNFRLDSKSVVETLCTKATMQTVRAADTNEVVKLIFRESDNDRKVVLQLEKKLFDYFNQDVFRDNNGTALLEFDKELSVFKDRLYELDISFPPSYPYSEDSSQGEQYMNTRCPAWCDRILMSLSAKELVLKSESEEKVATYDHIGPNVCMGDHKPVFLAFRIAPGAGKRCQRRERILERPPCSSVSNSSS
B2: phospholipase Cβ4 (enzyme, UniProt Q91UZ1 1-1175)
chain: MAKPYEFNWQKEVPSFLQEGAVFDRYEEESFVFEPNCLFKVDEFGFFLTWKSEGKEGQVLECSLINSIRQAAIPKDPKILAALEAVGKSENDLEGRILCVCSGTDLVNIGFTYMVAENPEVTKQWVEGLRSIIHNFRANNVSPMTCLKKHWMKLAFLTNTTGKIPVRSITRTFASGKTEKVIFQALKELGLPSGKNDEIEPAAFTYEKFYELTQKICPRTDIEDLFKKINGDKTDYLTVDQLVSFLNEHQRDPRLNEILFPFYDAKRAMQIIEMYEPDEELKKKGLISSDGFCRYLMSDENAPVFLDRLELYQEMDHPLAHYFISSSHNTYLTGRQFGGKSSVEMYRQVLLAGCRCVELDCWDGKGEDQEPIITHGKAMCTDILFKDVIQAIKETAFVTSEYPVILSFENHCSKYQQYKMSKYCEDLFGDLLLKQALESHPLEPGRPLPSPNDLKRKILIKNKRLKPEVEKKQLEALKSMMEAGESAAPASILEDDNEEEIESADQEEEAHPEYKFGNELSADDYSHKEAVANSVKKGLVTVEDEQAWMASYKYVGATTNIHPYLSTMINYAQPVKFQGFHVAEERNIHYNMSSFNESVGLGYLKTHAIEFVNYNKRQMSRIYPKGGRVDSSNYMPQIFWNAGCQMVSLNYQTPDLAMQLNQGKFEYNGSCGYLLKPDFMRRPDRTFDPFSETPVDGVIAATCSVQVISGQFLSDKKIGTYVEVDMYGLPTDTIRKEFRTRMVMNNGLNPVYNEESFVFRKVILPDLAVLRIAVYDDNNKLIGQRILPLDGLQAGYRHISLRNEGNKPLSLPTIFCNIVLKTYVPDGFGDIVDALSDPKKFLSITEKRADQMRAMGIETSDIADVPSDTSKNDKKGKANPAKANVTPQSSSELRPTTTAALGSGQEAKKGIELIPQVRIEDLKQMKAYLKHLKKQQKELNSLKKKHAKEHSTMQKLHCTQVDKIVAQYDKEKSTHEKILEKAMKKKGGSNCLEIKKETEIKIQTLTTDHKSKVKEIVAQHTKEWSEMINTHSAEEQEIRDLHLSQQCELLRKLLINAHEQQTQQLKLSHDRESKEMRAHQAKISMENSKAISQDKSIKNKAERERRVRELNSSNTKKFLEERKRLAMKQSKEMDQLKKVQLEHLEFLEKQNEQAKEMQQMVKLEAEMDRRPATVV
B3: solute carrier family 12 member 5 (protein, UniProt Q91V14-1 1-1138)
chain: MSRRFTVTSLPPAASAASADPESRRHSVADPRRLPREDVKGDGNPKESSPFINSTDTEKGREYDGRNMALFEEEMDTSPMVSSLLSGLANYTNLPQGSREHEEAENNEGGKKKPVQAPRMGTFMGVYLPCLQNIFGVILFLRLTWVVGIAGIMESFCMVFICCSCTMLTAISMSAIATNGVVPAGGSYYMISRSLGPEFGGAVGLCFYLGTTFAGAMYILGTIEILLAYLFPAMAIFKAEDASGEAAAMLNNMRVYGTCVLTCMATVVFVGVKYVNKFALVFLGCVILSILAIYAGVIKSAFDPPNFPICLLGNRTLSRHGFDVCAKLAWEGNETVTTRLWGLFCSSRLLNATCDEYFTRNNVTEIQGIPGAASGLIKENLWSSYLTKGVIVERRGMPSVGLADGTPVDMDHPYVFSDMTSYFTLLVGIYFPSVTGIMAGSNRSGDLRDAQKSIPTGTILAIATTSAVYISSVVLFGACIEGVVLRDKFGEAVNGNLVVGTLAWPSPWVIVIGSFFSTCGAGLQSLTGAPRLLQAISRDGIVPFLQVFGHGKANGEPTWALLLTACICEIGILIASLDEVAPILSMFFLMCYMFVNLACAVQTLLRTPNWRPRFRYYHWTLSFLGMSLCLALMFICSWYYALVAMLIAGLIYKYIEYRGAEKEWGDGIRGLSLSAARYALLRLEEGPPHTKNWRPQLLVLVRVDQDQNVVHPQLLSLTSQLKAGKGLTIVGSVLEGTFLDNHPQAQRAEESIRRLMEAEKVKGFCQVVISSNLRDGVSHLIQSGGLGGLQHNTVLVGWPRNWRQKEDHQTWRNFIELVRETTAGHLALLVTKNVSMFPGNPERFSEGSIDVWWIVHDGGMLMLLPFLLRHHKVWRKCKMRIFTVAQMDDNSIQMKKDLTTFLYHLRITAEVEVVEMHESDISAYTYEKTLVMEQRSQILKQMHLTKNEREREIQSITDESRGSIRRKNPANPRLRLNVPEETACDNEEKPEEEVQLIHDQSAPSCPSSSPSPGEEPEGERETDPEVHLTWTKDKSVAEKNKGPSPVSSEGIKDFFSMKPEWENLNQSNVRRMHTAVRLNEVIVNKSRDAKLVLLNMPGPPRNRNGDENYMEFLEVLTEQLDRVMLVRGGGREVITIYS
B4: ρ guanine nucleotide exchange factor 33 (protein, UniProt Q8BW86-1 1-850)
chain: MEKSKAKQGENEHMPVNNPSTQIYQLQALASELKTGFTEAMQELTRIQHGEYALEEKVKSCRCSMEEKVTEMKNSLNYFKEELSNAMSMIQAITSKQEEMQQKIEQLQQEKRRESRKVKAKKAQKEEHGAQAGPASAPAPGSAPTQGSPFRSINVPEAGLPSDDFTNMLPSQNYEKAQESRSVHVGDSNVKGMMGPGVNPTTPESDENLKPSLSAEIQSKGHHTPGLWRQPKEGKEWGEEYVTKDHPDKLKDAGQGRHSSLENVLCETSLAAKRQTVALELLESERKYVINISLILKIKATFQGSDGKRNPKERSLFPGSLRYLVQQHLDLLHALQERVLKWPRQGVLGDLFLKLTNDENNFLDYYVAYLRDLPECISLVHVVVLKEGDEEIKSDIYTLFFHIVQRIPEYLIHLQNVLKFTEQEHPDYYLLLVCVQRLRVFISHYTLLFQCNEDLLIQKRKKLKKSSMAKLYKGLASQCANAGQDASPNAGQEAVHDSGVHSEEMLQPYPSSSSSAPAVSHLMAPAKKGQQQQSLMESMQPGKPGDWELEGRKHERPESLLAPAQFCAAEQDVKALAGPLQAIPEMDFEPSSAEPLGNVERSLRGPPELLPDARGFVPAGYEEFEYGGEIFALPAPYDEEPFQAPALFDNCSPASSESSLDICFLRPVSFAMEAERPEHALQPLPKSATSPASSSGAYKLEAAQAQAHGKAKPLSRSLKEFPRTPPAEGVAPRLYSTRSSSGGRAPLKVERAPAPHGPAAAAAASRGAPRTFFPQQRSQSEKQTYLEEMHLEDATRFCPKEERESEQTSFSDQNPRQDQKGGFRSSFRKLFKKKNGNSTGEDFCGPWGWW
B5: 14-3-3 protein θ (protein, UniProt P68254-1 1-245)
chain: MEKTELIQKAKLAEQAERYDDMATCMKAVTEQGAELSNEERNLLSVAYKNVVGGRRSAWRVISSIEQKTDTSDKKLQLIKDYREKVESELRSICTTVLELLDKYLIANATNPESKVFYLKMKGDYFRYLAEVACGDDRKQTIENSQGAYQEAFDISKKEMQPTHPIRLGLALNFSVFYYEILNNPELACTLAKTAFDEAIAELDTLNEDSYKDSTLIMQLLRDNLTLWTSDSAGEECDAAEGAEN
B6: short Transient Receptor Potential Cation channel C3 (protein, UniProt Q9QZC1 1-910)
chain: MSTKVKKCREPARVTLPAPEEEEDGEAEGGESQRRRRGWRGVNGGLEPPCPRAPPSPGPDASSEGSPSRWRTAGMRDKGRRQAVRGPAFMFGARGPSLTAEEERFLDAAEYGNIPVVRKMLEESRTLNVNCVDYMGQNALQLAVGNEHLEVTELLLKKENLARIGDALLLAISKGYVRIVEAILGHPGFAASRRLTLSPCEQELRDDDFYAYDEDGTRFSPDITPIILAAHCHKYEVVHLLLLKGARIERPHDYFCRCSDCAEKQRLDAFSHSRSRINAYKGLASPAYLSLSSEDPVLTALELSNELAKLANIEKEFKNDYRKLSMQCKDFVVGVLDLCRDSEEVEAILNGDLESAEPLERHGHKASLSRVKLAIKYEVKKFVAHPNCQQQLLTIWYENLSGLREQTIAIKCLVVLVVALGLPFLAIGYWIAPCSRLGKILRSPFMKFVAHAASFIIFLGLLVFNASDRFEGITTLPNITVIDYPKQIFRVKTTQFTWTEMLIMVWVLGMMWSECKELWLEGPREYIVQLWNVLDFGMLSIFIAAFTARFLAFLQATKAQQYVDSHVQESDLSEVTLPPEVQYFTYARDKWLPSDPQIISEGLYAIAVVLSFSRIAYILPANESFGPLQISLGRTVKDIFKFMVLFIMVFLAFMIGMFILYSYYLGAKVNPAFTTVEESFKTLFWSIFGLSEVTSVVLKYDHKFIENIGYVLYGIYNVTMVVVLLNMLIAMINSSYQEIEDDSDVEWKFARSKLWLSYFDDGKTLPPPFSLVPSPKSFVYFIMRITNFSKCRRRRLQKDLELGMGNSKSRLNLFTQSNSRVFESHSFNSILNQPTRYQQIMKRLIKRYVLKAQVDKENDEVNEGELKEIKQDISSLRYELLEDKSQATEELAILIHKLSEKLNPSVLRCE
B7: excitatory amino acid transporter 1 (protein, UniProt P56564 1-543)
chain: MTKSNGEEPRMGGRMERLQQGVRKRTLLAKKKVQSLTKEDVKSYLFRNAFVLLTVTAVIVGTILGFALRPYKMSYREVKYFSFPGELLMRMLQMLVLPLIISSLVTGMAALDSKASGKMGMRAVVYYMTTTIIAVVIGIIIVIIIHPGKGTKENMYREGKIVQVTAADAFLDLIRNMFPPNLVEACFKQFKTSYEKRSFKVPIQSNETLLGAVINNVSEAMETLTRIREEMVPVPGSVNGVNALGLVVFSMCFGFVIGNMKEQGQALREFFDSLNEAIMRLVAVIMWYAPLGILFLIAGKIVEMEDMGVIGGQLAMYTVTVIVGLLIHAVIVLPLLYFLVTRKNPWVFIGGLLQALITALGTSSSSATLPITFKCLEENNGVDKRITRFVLPVGATINMDGTALYEALAAIFIAQVNNFDLNFGQIITISITATAASIGAAGIPQAGLVTMVIVLTSVGLPTDDITLIIAVDWFLDRLRTTTNVLGDSLGAGIVEHLSRHELKNRDVEMGNSVIEENEMKKPYQLIAQDNEPEKPVADSETKM

No constants are given. Whether binding was seen depends on the method and setting. Binding seen in cells or lysates may run through a third protein. A yes stands for co-enrichment or nearness to the bait. Other partners may have been found.

This test deals with metabotropic glutamate receptor 1, mGlu1α variant (mouse (endogenous in cerebellum)) (UniProt P97772). Kind of test: affinity purification with mass spectrometry; mGlu1α immunoprecipitated with Af811-1 (three replicates) or Af660-1 (three replicates) and Dynabeads Protein-A from detergent lysates (0.5% deoxycholate, 1% NP-40, 0.1% SDS) of the mouse cerebellar P2 fraction; LC-MS/MS of eluates; proteins also found from Grm1-KO lysates removed.
As to B1, the binding entry was “binds”.

As for B2, the binding result is listed as “binds”.

As for B3, the binding entry was “binds”.

In the case of B4, the binding entry is “binds”.

As for B5, the binding result was “binds”.

As for B6, the binding entry is reported as “binds”.

In the case of B7, the binding result was “binds”.
